Results on one compound are retold here after article PMC7848789 (SLAS discovery : advancing life sciences R & D, 2019).

The subject of test [1] is HDAC class I and II activity in HeLa cells. The test is described as follows: HDAC-Glo I/II cellular assay in HeLa cells. It is filed as cell-based. The conditions noted are these: qHTS; 1 hour; active = CRC class 1 and 2 and AUC>100.
Test [2] relates to HDAC class I and II activity in HEK293T cells. As to the kind of experiment: HDAC-Glo I/II cellular assay in HEK293T cells. It is filed as cell-based. The conditions noted are these: qHTS; 1 hour; active = CRC class 1 and 2 and AUC>100.

`Cc1ccc(C(=O)NCCCCCC(=O)Nc2ccccc2N)cc1` [RG2833]: the “Activity outcome in HeLa cellular HDAC-Glo I/II assay” value in test [1] was “relatively weak activity (below the activity cutoff)”. Besides, the “Activity outcome in HEK293T cellular HDAC-Glo I/II assay” value in test [2] is given as “relatively weak activity (below the activity cutoff)”.
